No constants are given. Whether binding was seen depends on the method and setting. Some binding calls cover weakened binding; strength is not graded here. Where a sequence is shown, tags or fusion partners need not be part of it.
Target: PCDH15_(1EC), protocadherin-15 EC11-CR domains (residues 1-30 and 1145-1462) (Mus musculus) (UniProt Q99PJ1)
Assay: tandem affinity co-purification (Strep-Tactin, then TALON) + SEC; co-expressed in HEK293 tsa201; lysed in 1% digitonin; Strep-Tactin elution removes free His-tagged PCDH15, TALON removes free strep-tagged LHFPL5; SEC in 20 mM Tris pH 8.0, 150 mM NaCl, 0.07% digitonin

Protein sequences, listed by entry. Tags and fused reporters are not part of them. Lines headed by an entry give the natural chain unless they say otherwise; changes in a name come on top. Chains listed by the source or under a name are the forms on record and can include a tag or linker. Residues count along the entry.
PCDH15_(1EC), protocadherin-15 EC11-CR domains (residues 1-30 and 1145-1462) (Q99PJ1, form named): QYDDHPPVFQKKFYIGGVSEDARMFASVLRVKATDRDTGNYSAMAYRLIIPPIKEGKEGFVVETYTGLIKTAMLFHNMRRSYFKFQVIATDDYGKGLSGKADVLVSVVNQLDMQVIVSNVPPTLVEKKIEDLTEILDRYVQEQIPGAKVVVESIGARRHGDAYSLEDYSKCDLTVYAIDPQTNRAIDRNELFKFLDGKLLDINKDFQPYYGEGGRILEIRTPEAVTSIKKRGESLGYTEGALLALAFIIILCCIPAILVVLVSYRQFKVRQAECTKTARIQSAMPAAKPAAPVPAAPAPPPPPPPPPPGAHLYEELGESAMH

B1: recombinant lipoma HMGIC fusion partner-like protein 5 (LHFPL5), residues 2-219 (protein, UniProt Q4KL25 2-219)
chain: VKLLPAQEAAKIYHTNYVRNSRAVGVMWGTLTICFSVLVMALFIQPYWIGDSVSTPQAGYFGLFSYCVGNVLSSELICKGGPLDFSSIPSRAFKTAMFFVALAMFLIIGSIICFSLFFVCNTATVYKICAWMQLAAATGLMIGCLVYPDGWDSSEVRRMCGEQTGKYTLGHCTIRWAFMLAILSIGDALILSFLAFVLGYRQDKLLPDDYKADGNEEV
- binding: binds

From paper PMC13228514
